Measured values from PMC6869211.
These are yes or no findings as the source states them, for the method shown. Binding seen in cells or lysates may run through a third protein. Some results given as binding are weak or reduced against the parent protein; the word gives no strength.

The chains behind the UniProt entries cited, without tags or fusion partners.
UniProt P08047: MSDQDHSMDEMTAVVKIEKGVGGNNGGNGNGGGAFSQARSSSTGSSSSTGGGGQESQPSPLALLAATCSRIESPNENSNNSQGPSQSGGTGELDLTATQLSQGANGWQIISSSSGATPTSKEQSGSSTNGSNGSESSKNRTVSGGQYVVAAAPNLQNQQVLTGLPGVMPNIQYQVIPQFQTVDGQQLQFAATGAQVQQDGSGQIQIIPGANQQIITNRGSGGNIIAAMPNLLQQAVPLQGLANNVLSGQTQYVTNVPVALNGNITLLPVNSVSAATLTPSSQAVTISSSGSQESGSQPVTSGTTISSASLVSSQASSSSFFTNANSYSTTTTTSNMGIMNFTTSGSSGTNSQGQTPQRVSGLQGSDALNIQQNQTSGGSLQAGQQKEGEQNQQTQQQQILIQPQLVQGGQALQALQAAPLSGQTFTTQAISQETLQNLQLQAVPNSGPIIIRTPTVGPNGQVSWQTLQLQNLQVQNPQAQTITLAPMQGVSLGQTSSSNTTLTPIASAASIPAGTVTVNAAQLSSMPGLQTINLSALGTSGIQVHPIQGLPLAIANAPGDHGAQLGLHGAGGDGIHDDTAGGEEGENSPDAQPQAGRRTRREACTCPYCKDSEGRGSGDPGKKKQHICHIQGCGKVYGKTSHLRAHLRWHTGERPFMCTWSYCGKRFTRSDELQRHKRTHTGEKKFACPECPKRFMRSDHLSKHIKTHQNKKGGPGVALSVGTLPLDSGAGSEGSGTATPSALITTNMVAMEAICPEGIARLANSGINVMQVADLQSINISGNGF
UniProt Q16665: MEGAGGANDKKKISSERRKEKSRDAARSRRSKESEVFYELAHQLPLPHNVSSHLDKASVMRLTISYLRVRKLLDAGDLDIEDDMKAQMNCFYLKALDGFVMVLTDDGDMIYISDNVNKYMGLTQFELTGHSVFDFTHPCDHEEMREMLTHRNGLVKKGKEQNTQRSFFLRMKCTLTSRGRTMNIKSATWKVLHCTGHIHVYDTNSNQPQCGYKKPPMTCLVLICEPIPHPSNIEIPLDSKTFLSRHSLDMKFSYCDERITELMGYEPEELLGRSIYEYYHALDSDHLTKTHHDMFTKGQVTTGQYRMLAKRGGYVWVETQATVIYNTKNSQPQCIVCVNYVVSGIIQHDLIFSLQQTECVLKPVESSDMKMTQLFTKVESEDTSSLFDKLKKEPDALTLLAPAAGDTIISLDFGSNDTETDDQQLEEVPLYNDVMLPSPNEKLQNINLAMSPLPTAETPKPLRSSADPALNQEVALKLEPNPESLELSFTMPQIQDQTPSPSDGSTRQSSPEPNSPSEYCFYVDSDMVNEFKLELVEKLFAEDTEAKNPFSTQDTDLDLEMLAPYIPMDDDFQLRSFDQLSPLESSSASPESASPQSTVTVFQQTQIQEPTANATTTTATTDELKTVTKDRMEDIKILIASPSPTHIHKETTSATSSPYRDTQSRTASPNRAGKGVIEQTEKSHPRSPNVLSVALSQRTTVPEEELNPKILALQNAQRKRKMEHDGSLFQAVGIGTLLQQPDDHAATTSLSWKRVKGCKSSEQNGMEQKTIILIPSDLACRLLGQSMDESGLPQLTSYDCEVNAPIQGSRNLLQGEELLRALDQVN

Columns and labels:
[1] = biological target: Specificity protein 1 (human (endogenous in A549)) (UniProt P08047); assay: co-IP; sequential nuclear co-IP: nuclear lysates of A549 cells under hypoxia (2 h and 8 h) immunoprecipitated, then western blotting; TFIID as input control
[2] = biological target: Hypoxia-inducible factor 1-alpha (human (endogenous in A549)) (UniProt Q16665); assay: as above

Hypoxia-inducible factor 1-alpha (from UniProt Q16665 1-826)
binding [1]: binds

Specificity protein 1 (from UniProt P08047 1-785)
binding [2]: binds
